The chains behind the UniProt entries cited, without tags or fusion partners. Residues count along the entry.
UniProt P01116, 1-188 isoform 2 G12D: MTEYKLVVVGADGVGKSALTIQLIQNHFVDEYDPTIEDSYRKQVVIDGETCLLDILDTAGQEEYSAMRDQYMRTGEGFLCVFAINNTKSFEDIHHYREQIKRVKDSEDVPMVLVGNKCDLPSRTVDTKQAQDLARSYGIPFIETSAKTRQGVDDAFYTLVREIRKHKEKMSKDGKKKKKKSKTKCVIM

According to patent publication US12448399B2, “Cereblon-based KRAS degrading PROTACs and uses related thereto” (Arvinas Operations, Inc., priority 2023, dated 2025):

Target: KRas-G12D (Homo sapiens, UniProt P01116, G12D)
Experiment: HiBiT Degradation Assay (G12D), AsPC-1 HiBiT-KRasG12D cells, 24 hr
Settings: for KRas Degradation Dmax: AsPC-1 cells, maximum degradation observed
Experimental: AsPC-1 (CRL-1682) cells were purchased from ATCC and are homozygous for the G12D mutation in KRas. AsPC-1 cells were cultured in GIBCO RPMI-1640 (ThermoFisher Scientific, catalog #61870-036, with Glutamax, no HEPES, no Na Pyruvate) supplemented with 10% FBS (ThermoFisher Scientific, catalog #2060357) and 1× Penicillin-Streptomycin (ThermoFisher Scientific, catalog #15140122, 10000 U/ml, 100×). For degradation assays, 384 well plates were used. Alamar blue was purchased from ThermoFisher Scientific (A50101) and used according to manufacturer instructions. The Nano-Glo® HiBiT Lytic Detection System and Nano-Glo® HiBiT Blotting System were purchased from Promega (#N3050 and #N2410) and used according to manufacturer instructions.
To create the AsPC-1 HiBiT-KRasG12D cell line, CRISPR-Cas9 was used to insert the HiBiT tag onto the N-terminus of one or more of the endogenous KRas alleles. See Schwinn, M. K. et al. (2018) CRISPR-mediated tagging of endogenous proteins with a luminescent peptide, ACS Chem. Biol. 13(2), 467-474. After knock-in of the tag, individual clones were isolated by single cell dilution and screened for HiBiT insertion by PCR. A clone was identified that contained the desired HiBiT-KRasG12D sequence at one allele while the remaining two KRasG12D alleles were untagged. This clone was used in further studies.
AsPC-1 HiBiT-KRasG12D cells were plated at 9000 or 15,000 cells/well in a 384 well plate (Corning #3770). Compounds of the present disclosure and positive controls were diluted in the appropriate cell media and applied to the plated cells resulting in a final concentration titration of 10 μM to […] in 0.5% DMSO. Gambogic acid was used as a positive control for cytotoxicity and titrated from 10 μM to 78 nM. All assays were performed in triplicate. Cells were treated with compounds for 24 hr at 37° C. in an incubator containing 5% CO2. Following treatment, alamar blue was used to determine if any compounds led to a loss in cell viability after 24 hr. The 10× alamar blue reagent was added to a final concentration of 1× as recommended by the manufacturer and cells were returned to the incubator for 4 hr. Plates were then allowed to equilibrate to RT and fluorescence was measured using a Perkin-Elmer EnVision. After completion of the fluorescence read, the liquid from each well was removed and the cells were washed with PBS. The Nano-Glo® HiBiT detection reagent was prepared according to the manufacturer's instructions and added to each well after the PBS wash was removed. Following incubation at room temperature for 45 min, the luminescence was read using the ultra-sensitive luminescence aperture on the Envision instrument.
Fluorescence values from the alamar blue treatment were normalized to the DMSO-only control for each compound titration. HiBiT luminescence was normalized to the DMSO-only control and the fractional HiBiT signal was plotted versus the log of the PROTAC concentration and fit to a 4-parameter dose-response model to obtain the concentration of the compound that leads to half maximal degradation (DC50) as well as the maximum degradation observed (Dmax, conventionally expressed as a percentage of control).

[1] = read-out: KRas Degradation DC50, AsPC-1 cells

| Structure (SMILES) | KRas Degradation Dmax | DC50 [1] | KRas Degradation Dmax (tested form: formic acid salt) | DC50 (read-out: KRas Degradation DC50, AsPC-1 cells, tested form: formic acid salt) |
| --- | --- | --- | --- | --- |
| C#Cc1c(F)ccc2cc(O)cc(-c3ncc4c(N5CC6CCC(C5)N6)nc(OCCN5CCC(CC6CCN(CC7CN(c8ccc9c(c8)CN(C8CCC(=O)NC8=O)C9=O)C7)CC6)CC5)nc4c3F)c12 (centres unmarked) | A (A represents a Dmax value >70%) | < 5.1 µM | – | – |
| CCc1cccc2cc(O)cc(-c3ncc4c(N5CC6CCC(C5)N6)nc(OCCN5CCC(c6ccc7c(c6)C(=O)N(C6CCC(=O)NC6=O)C7)CC5)nc4c3F)c12 (centres unmarked) | – | 0.25 to 1 µM | – | – |
| C#Cc1c(F)ccc2cc(O)cc(-c3ncc4c(N5CC6CCC(C5)N6)nc(OCCCN5CCC(CC6CCN(CC7CCN(c8ccc9c(c8)n(C)c(=O)n9C8CCC(=O)NC8=O)CC7)CC6)CC5)nc4c3F)c12 (centres unmarked) | – | – | A (A represents a Dmax value >70%) | < 5.1 µM |

Read-outs that look alike come from different tables or passages of the source. The structures given here were assigned with low confidence; some may be wrong.
